For at least one entry, the source does not settle the construct or the ends of the probe.
System: MBP-DpbZIP12
Test: EMSA
Settings: shifted band diminished by unlabeled competitor probe (10x, 20x, 50x); LightShift Chemiluminescent EMSA Kit (Pierce), polyacrylamide gel; pH and temperature not stated; recombinant protein; label: biotin

“TTGTGCACACGTGTCGTGACAGGTCTCACACGTGGCAAGT (double strand) [proDp7-DR probe]”: binds.

— article PMC12977164
